# Data: the supplement of paper PMC11732987, “Enantioselective OTUD7B fragment discovery through chemoproteomics screening and high-throughput optimisation” (Communications Chemistry, 2025)
# The chains behind the UniProt entries cited, without tags or fusion partners. Where a name states a change or a piece, a line headed by the entry shows the natural chain unless it says otherwise. Residues count along the entry.
# UniProt P04150, 367-386: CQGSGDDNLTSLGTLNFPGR
# UniProt Q9BSD7: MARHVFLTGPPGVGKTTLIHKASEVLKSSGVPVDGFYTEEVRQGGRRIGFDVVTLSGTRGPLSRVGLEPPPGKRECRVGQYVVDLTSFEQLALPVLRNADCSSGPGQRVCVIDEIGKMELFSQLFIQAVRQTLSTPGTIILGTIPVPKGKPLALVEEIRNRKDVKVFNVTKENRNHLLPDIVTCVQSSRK
# UniProt Q86WQ0: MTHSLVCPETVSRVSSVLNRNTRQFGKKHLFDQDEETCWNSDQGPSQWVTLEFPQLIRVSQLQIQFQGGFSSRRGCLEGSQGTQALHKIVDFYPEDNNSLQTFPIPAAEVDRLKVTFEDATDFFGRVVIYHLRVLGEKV
# UniProt Q9H4B0: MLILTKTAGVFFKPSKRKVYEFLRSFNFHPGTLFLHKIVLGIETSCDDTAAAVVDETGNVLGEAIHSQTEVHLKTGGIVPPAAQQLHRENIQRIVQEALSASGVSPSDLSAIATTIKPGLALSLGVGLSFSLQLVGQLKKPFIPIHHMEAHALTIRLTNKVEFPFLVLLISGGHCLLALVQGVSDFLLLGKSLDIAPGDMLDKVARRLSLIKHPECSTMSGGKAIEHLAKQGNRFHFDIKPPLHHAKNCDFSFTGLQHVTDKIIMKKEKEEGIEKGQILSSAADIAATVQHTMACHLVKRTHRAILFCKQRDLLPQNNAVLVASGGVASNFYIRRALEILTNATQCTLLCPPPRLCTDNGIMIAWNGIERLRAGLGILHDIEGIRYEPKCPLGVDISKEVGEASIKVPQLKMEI
# UniProt Q96DC9: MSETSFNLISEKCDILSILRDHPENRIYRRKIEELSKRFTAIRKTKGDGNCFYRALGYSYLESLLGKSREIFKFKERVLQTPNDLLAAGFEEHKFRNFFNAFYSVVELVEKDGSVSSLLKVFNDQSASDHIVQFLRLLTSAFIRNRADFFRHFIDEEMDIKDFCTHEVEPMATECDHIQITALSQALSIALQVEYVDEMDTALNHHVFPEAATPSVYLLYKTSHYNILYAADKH
# UniProt Q9UM47: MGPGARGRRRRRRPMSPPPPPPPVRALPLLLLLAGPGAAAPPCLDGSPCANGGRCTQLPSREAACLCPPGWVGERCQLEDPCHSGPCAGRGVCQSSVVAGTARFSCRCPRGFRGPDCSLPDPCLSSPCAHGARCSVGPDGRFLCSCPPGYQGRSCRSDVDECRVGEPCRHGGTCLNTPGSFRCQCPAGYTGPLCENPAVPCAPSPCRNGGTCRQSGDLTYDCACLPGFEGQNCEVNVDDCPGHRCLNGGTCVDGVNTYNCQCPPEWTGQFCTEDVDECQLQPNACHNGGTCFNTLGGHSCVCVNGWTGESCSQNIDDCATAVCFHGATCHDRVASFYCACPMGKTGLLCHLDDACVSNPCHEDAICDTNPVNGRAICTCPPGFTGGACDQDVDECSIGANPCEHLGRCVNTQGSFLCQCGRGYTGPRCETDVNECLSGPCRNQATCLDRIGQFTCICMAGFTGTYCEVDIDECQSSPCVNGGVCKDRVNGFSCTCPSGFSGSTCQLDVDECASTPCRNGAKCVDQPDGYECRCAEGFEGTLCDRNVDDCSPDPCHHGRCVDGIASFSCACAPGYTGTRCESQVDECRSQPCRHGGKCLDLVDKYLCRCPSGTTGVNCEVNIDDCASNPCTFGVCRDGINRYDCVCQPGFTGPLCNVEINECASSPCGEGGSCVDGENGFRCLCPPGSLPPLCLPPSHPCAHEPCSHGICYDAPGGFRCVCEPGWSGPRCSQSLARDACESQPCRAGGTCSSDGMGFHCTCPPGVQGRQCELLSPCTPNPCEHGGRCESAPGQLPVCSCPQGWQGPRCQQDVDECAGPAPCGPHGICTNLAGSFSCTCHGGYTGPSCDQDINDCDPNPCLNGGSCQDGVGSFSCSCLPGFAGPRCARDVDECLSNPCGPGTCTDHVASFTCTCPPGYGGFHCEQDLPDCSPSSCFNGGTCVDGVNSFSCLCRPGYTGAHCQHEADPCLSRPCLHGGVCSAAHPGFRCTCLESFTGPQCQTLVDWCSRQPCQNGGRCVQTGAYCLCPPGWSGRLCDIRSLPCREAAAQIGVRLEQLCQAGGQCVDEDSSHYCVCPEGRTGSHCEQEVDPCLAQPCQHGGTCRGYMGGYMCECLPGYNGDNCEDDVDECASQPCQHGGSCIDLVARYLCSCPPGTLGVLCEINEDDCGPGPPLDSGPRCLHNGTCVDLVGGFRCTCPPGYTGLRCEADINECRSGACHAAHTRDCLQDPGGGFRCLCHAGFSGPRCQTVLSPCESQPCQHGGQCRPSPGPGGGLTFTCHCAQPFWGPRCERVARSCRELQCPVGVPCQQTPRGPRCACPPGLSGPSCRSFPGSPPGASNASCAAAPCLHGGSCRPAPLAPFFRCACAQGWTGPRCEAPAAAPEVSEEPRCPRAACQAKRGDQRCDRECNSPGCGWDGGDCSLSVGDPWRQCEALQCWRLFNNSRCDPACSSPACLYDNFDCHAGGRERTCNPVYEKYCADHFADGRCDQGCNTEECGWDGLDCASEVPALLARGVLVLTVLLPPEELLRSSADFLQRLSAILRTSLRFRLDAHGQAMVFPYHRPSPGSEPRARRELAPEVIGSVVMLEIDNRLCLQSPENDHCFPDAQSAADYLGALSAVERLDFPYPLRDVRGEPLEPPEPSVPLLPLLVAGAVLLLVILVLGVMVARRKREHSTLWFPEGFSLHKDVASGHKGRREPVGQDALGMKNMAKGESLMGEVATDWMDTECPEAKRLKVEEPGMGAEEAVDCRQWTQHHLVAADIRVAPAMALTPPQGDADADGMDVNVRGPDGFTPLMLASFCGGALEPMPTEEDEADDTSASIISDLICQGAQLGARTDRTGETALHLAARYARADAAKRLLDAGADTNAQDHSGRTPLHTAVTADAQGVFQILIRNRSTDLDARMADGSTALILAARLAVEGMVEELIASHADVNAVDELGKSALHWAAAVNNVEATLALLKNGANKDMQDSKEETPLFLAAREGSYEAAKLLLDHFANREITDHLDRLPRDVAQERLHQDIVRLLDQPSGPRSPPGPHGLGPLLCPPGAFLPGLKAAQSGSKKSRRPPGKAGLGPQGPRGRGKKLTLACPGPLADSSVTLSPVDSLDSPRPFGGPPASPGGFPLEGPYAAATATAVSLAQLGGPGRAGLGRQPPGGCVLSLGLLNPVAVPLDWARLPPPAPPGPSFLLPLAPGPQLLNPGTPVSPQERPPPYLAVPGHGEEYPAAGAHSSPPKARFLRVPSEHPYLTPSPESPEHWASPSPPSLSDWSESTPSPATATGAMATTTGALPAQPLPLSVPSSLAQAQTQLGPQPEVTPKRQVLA
# UniProt Q9BZ95: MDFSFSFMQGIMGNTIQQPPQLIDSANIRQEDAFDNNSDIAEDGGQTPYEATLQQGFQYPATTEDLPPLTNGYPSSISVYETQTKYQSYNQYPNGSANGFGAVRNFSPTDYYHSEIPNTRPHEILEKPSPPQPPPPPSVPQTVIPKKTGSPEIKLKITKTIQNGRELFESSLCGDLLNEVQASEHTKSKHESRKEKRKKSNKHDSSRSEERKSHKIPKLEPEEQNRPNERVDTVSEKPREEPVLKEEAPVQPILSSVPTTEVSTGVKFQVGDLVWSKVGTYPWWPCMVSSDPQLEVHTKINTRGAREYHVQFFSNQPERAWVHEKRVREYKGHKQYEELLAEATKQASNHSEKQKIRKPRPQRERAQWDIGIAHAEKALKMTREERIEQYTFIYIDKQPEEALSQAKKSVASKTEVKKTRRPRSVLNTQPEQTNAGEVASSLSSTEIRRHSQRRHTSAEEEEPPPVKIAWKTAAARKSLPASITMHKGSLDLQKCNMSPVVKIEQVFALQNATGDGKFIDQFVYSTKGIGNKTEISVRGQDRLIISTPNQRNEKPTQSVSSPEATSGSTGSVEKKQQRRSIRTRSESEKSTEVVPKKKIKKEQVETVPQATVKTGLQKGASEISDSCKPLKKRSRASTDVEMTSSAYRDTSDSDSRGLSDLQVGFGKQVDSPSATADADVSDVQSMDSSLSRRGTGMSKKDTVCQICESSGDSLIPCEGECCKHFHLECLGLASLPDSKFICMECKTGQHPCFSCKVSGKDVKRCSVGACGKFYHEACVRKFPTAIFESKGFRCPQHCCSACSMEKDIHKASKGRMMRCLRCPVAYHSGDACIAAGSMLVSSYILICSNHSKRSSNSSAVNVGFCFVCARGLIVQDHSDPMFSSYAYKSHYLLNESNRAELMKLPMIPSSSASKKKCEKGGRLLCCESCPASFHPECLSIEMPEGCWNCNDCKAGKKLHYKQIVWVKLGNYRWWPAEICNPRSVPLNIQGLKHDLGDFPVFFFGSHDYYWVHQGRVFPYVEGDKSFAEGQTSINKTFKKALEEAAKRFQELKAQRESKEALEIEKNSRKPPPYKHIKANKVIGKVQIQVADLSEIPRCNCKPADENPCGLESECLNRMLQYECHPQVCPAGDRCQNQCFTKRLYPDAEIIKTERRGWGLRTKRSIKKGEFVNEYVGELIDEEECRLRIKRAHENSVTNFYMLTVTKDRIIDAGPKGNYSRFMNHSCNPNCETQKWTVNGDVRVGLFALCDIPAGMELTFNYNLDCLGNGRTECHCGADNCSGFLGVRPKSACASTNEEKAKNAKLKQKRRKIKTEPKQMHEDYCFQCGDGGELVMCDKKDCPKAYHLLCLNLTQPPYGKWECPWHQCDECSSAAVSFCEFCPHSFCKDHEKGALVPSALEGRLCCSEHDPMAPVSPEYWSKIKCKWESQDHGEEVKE
# UniProt P53384: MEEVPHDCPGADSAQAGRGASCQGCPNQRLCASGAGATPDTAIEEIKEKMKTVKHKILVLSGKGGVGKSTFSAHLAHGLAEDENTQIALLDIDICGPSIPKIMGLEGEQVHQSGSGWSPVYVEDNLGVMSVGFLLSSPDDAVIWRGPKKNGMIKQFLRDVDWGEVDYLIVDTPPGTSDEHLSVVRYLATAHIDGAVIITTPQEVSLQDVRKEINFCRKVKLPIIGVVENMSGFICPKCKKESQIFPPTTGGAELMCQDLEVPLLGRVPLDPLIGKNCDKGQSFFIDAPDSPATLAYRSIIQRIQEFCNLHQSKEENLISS
# UniProt O60313: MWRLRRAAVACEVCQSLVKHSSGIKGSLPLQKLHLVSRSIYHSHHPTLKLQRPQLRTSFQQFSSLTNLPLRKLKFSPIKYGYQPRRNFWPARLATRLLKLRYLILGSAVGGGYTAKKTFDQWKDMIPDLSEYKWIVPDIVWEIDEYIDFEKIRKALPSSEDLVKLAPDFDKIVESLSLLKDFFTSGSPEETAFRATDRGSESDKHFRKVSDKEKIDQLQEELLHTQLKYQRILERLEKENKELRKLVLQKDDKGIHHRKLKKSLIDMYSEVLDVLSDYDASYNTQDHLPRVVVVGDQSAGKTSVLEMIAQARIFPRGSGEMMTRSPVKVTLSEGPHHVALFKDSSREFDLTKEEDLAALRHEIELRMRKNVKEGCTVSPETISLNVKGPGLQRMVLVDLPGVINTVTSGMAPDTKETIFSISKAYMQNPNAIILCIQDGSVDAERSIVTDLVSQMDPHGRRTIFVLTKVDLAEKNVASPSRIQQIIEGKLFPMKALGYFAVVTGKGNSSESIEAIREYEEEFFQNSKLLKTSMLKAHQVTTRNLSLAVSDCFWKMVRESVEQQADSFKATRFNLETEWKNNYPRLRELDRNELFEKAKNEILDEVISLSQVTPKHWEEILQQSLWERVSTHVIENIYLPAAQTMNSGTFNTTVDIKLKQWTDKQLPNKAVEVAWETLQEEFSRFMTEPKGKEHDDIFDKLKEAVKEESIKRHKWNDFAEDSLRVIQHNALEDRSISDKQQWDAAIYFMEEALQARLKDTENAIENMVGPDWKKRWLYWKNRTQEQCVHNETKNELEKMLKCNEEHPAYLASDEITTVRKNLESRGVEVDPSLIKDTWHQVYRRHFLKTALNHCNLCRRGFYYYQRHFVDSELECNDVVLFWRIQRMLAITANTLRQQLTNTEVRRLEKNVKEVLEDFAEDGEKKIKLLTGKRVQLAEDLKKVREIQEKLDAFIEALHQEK
# UniProt O95989: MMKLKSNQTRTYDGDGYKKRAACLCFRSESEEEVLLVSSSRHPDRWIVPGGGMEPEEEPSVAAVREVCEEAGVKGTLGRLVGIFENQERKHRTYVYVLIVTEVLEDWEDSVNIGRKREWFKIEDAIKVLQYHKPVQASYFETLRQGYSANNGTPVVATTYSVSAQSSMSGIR
# This is one part of the list. The data scatter; read single values as rough.
# Compound: ClCC(=O)N[C@@H]1CCCc2ccccc12
# Test: log2 mean competition ratio of IA-DTB cysteine labelling (DMSO/compound) (log2 ratio); higher = stronger cysteine engagement by compound
# Settings: 50 µM; treatment time: 4 h; cell line lysate: HEK293T
# Description: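 IA-DTB competitive cysteine chemoproteomics in HEK293T RIPA lysate. Lysates were treated with compound 29 or 30 at 50 or 200 µM for 4 h, then IA-DTB (500 µM, 1 h), trypsin-digested, NeutrAvidin-enriched and analysed by diaPASEF. Competition ratio = intensity DMSO / intensity compound (n=4 treated, n=64 DMSO); binding: mean log2 CR ≥ 1 and p ≤ 0.05 plus QC filters. Target is the cysteine site.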
row,Target,log2 mean competition ratio
1,OPHN1 C24 (UniProt O60890),-0.0253
2,NR3C1 C367 (UniProt P04150),-0.0789
3,NTPCR C101 (UniProt Q9BSD7),-0.0822
4,NUF2 C377 (UniProt Q9BZD4),-0.166
5,NTPCR C110 (UniProt Q9BSD7),0.0465
6,NUMBL C206 (UniProt Q9Y6R0),-0.0103
7,NUMB C176 (UniProt P49757),-0.0933
8,NUP160 C1166 (UniProt Q12769),-0.0817
9,NR2C2AP C7 (UniProt Q86WQ0),0.185
10,OSGEPL1 C390 (UniProt Q9H4B0),0.0812
11,OTUB2 C51 (UniProt Q96DC9),-0.0021
12,NOTCH3 C1747 (UniProt Q9UM47),-0.183
13,NSD3 C627 (UniProt Q9BZ95),-0.412
14,NPEPPS C265 (UniProt P55786),-0.00756
15,NUBP1 C307 (UniProt P53384),-0.558
16,NUMBL C99 (UniProt Q9Y6R0),-0.288
17,NOTCH2 C264 (UniProt Q04721),0.0359
18,NUP205 C1486 (UniProt Q92621),-0.0925
19,NPLOC4 C188,-0.118
20,NUP85 C51 (UniProt Q9BW27),0.471
21,NUDT5 C76,-0.00712
22,NUP155 C974 (UniProt O75694),-0.107
23,OPA1 C786 (UniProt O60313),-0.0519
24,NUDT3 C68 (UniProt O95989),0.0173
25,NUP188 C976 (UniProt Q5SRE5),0.546
26,OSBPL6 C379 (UniProt Q9BZF3),0.0952
27,NUP107 C621 (UniProt P57740),0.656

# In a second layout: entries from further up
row | Target | log2 mean competition ratio
4 | NUF2 C377 (UniProt Q9BZD4) | -0.166
10 | OSGEPL1 C390 (UniProt Q9H4B0) | 0.0812
